Results are given in words; binding and its absence hold for the method and conditions named. In cells and extracts the contact can be indirect. Some binding calls cover weakened binding; strength is not graded here.
Experiments:
[1] = target: GST-tagged CK2α (human recombinant CK2) (human) (UniProt P68400); test: pull-down; 3 ug GST-CK2α immobilised on Glutathione-Sepharose 4B, incubated overnight at 4 °C with lysates of HEK293 cells transfected with HA-MZF1; washed with PBS; western blot with anti-HA Ab; only the target purified
Flag-MZF1 = Flag-MZF1 (UniProt P28698); test: co-IP; HEK293 cells transfected with Flag-MZF1; lysis in 50 mM Tris-HCl pH 7.4, 150 mM NaCl, 0.5% NP-40; immunoprecipitation with anti-Flag Ab, western blot with anti-CK2α Ab

Protein sequences, listed by entry. Tags and fused reporters are not part of them.
UniProt P68400: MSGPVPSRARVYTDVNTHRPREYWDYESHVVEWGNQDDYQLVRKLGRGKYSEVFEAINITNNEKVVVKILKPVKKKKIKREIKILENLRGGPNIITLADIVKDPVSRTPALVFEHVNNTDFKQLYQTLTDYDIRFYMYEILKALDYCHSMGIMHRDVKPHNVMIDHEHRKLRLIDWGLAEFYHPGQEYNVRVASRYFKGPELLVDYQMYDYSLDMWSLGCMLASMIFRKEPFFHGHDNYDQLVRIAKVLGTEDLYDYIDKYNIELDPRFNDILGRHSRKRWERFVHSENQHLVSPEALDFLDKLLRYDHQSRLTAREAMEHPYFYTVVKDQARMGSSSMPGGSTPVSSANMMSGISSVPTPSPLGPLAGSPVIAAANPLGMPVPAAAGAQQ
UniProt P28698: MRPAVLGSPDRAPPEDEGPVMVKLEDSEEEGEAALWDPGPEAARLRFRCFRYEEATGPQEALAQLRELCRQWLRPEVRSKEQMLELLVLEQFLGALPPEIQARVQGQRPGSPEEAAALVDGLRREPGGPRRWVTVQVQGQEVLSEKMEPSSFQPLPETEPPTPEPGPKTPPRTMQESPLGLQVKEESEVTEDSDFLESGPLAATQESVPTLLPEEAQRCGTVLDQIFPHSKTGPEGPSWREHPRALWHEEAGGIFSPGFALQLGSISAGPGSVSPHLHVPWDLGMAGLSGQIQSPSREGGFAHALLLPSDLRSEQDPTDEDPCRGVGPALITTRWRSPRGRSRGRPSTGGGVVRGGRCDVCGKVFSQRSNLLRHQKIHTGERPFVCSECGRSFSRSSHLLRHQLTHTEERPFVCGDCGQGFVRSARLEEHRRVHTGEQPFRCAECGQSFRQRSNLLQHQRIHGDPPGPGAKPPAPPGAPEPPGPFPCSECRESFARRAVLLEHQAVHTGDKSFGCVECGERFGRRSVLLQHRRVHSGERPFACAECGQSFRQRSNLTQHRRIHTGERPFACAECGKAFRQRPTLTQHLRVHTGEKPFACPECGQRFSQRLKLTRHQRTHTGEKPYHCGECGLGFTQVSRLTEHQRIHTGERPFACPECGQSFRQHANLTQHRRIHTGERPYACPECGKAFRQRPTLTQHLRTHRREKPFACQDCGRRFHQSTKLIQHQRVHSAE

Substance | binding [1] | binding (Flag-MZF1)
HA-tagged MZF1 (myeloid zinc finger 1) (from UniProt P28698 1-734) | binds | 
endogenous CK2α (from UniProt P68400 1-391) (enzyme) |  | binds

Reference: paper PMC5852951
